Source: the supplement of paper PMC3334620
Whole data set: some 33,000 sequences, median “E-score (-0.5 to 0.5)” near -0.0014, cut for the highest 2% near 0.25. The list shows a part of the results.

target: T1, Cad1 (UniProt P24813); assay: PBM E-score (8-mer binding enrichment) (E-score (-0.5 to 0.5)); higher = stronger / more preferred TF binding; conditions: protein concentration: 100 nM; construct: GST-full length
T1 sequence: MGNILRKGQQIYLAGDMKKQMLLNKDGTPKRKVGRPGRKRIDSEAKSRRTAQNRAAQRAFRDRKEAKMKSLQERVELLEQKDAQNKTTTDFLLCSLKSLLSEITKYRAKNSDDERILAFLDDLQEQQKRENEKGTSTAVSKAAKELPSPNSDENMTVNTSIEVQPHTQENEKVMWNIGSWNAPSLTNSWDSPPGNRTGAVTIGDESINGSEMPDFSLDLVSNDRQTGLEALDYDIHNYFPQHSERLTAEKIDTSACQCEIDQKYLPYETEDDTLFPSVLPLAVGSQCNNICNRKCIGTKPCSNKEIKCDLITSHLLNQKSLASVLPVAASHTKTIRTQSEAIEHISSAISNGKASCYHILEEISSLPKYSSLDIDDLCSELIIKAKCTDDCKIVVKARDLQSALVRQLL
Method: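 Universal 'all 10-mer' protein binding microarrays (Agilent AMADID 015681) probed with GST-tagged S. cerevisiae TFs (full-length or DBD) made by in vitro transcription/translation (PURExpress), about 100-200 nM. Bound TF was detected with fluorescent anti-GST. Each ungapped 8-mer (which stands for itself and its reverse complement) is scored by the PBM enrichment score (E-score), a modified Wilcoxon-Mann-Whitney statistic from -0.5 to +0.5, computed with the Universal PBM Analysis Suite. Scale: above 0.35 generally sequence-specific binding.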

Row | Sequence | PBM E-score
1 | AAACCCTT | 0.0351
2 | GATATCTA | 0.00132
3 | CATCGCCA | 0.118
4 | AATCCTGG | -0.119
5 | GATAGGTA | 0.165
6 | GCTCGCGA | 0.3
7 | ACATTTAG | -0.126
8 | TCGATCGA | 0.27
9 | CGCCGTGC | -0.0909
10 | CTTAGGAC | -0.0513
11 | CCCACGAA | 0.115
12 | TCCAGTAA | -0.00179
13 | TACTAGCA | 0.0596
14 | AGTGTTTG | 0.0711
15 | AGCTACAC | 0.138
16 | CGGCTGAC | 0.225
17 | CTTCTCGC | -0.101
18 | ATTTCGCC | 0.111
19 | CGTTTCTA | -0.0391
20 | ATCATGAG | 0.0863
21 | GATACCTA | 0.16
22 | CGGAGCCG | -0.184

Looked up above:
Entry for CGGAGCCG under PBM E-score: -0.184
Entry for TACTAGCA under PBM E-score: 0.0596

Following part:

Row | Sequence | PBM E-score
23 | CGGTTGCA | 0.0228
24 | ACGAATCG | 0.147
25 | GATACAGA | 0.0966
26 | AGCGAACG | -0.117
27 | GCCCCCAC | -0.447
28 | CTCCTCTC | -0.347
29 | ATCGAAGA | 0.16
30 | ACGAGGAC | 0.0525
31 | CGCACTAA | 0.155
32 | CGTATCGC | 0.0665
33 | TACAGCCA | -0.0132
34 | TTCCACAA | 0.0931
35 | CGTAATAA | 0.12
36 | ATGCAGGC | -0.0746
37 | CGATCCAC | -0.131
38 | AAAGAGGC | -0.201
39 | TGGCGTAA | -0.0625
40 | CCTCAAGG | -0.0591
41 | CAAGGCAG | -0.0882
42 | AGGCGTGA | -0.107
43 | GAGCCGAA | -0.00606
44 | ACTGACAC | -0.0887

Row | Sequence | PBM E-score
45 | AAGGGAAT | -0.134
46 | ATTCCACC | 0.0814
47 | AAGGATTG | 0.0588
48 | ACATCGTG | 0.0175
49 | AGCACCAA | 0.0274
50 | AACCGATC | -0.0978
51 | GTCACATA | 0.0592
52 | CATCTCAC | 0.0163
53 | CTCTCTCA | -0.107
54 | CTCCGGCC | -0.379
55 | CACACACC | 0.0169
56 | CCATCCGC | 0.0114
57 | AAGTTTGT | 0.0981
58 | AGACAGCC | -0.132
59 | CCCTTTAA | -0.135
60 | TATACGGA | -0.17
61 | AAGTTCTC | 0.0778
62 | AGTAAGCG | 0.338
63 | TATGCTAA | -0.0457
64 | CCACCGTC | -0.242
65 | GCCTTACA | -0.277
66 | CGGATCAC | 0.156

Another view of some results above:
Row,Sequence,PBM E-score
57,AAGTTTGT,0.0981
58,AGACAGCC,-0.132
59,CCCTTTAA,-0.135
60,TATACGGA,-0.17
61,AAGTTCTC,0.0778

(list continues)

Row | Sequence | PBM E-score
67 | ATGCCGTA | 0.0523
68 | CGCATTGC | 0.165
69 | AAGTACCG | 0.0375
70 | CACGCCTG | -0.0998
71 | CTGAACGA | -0.0121
72 | ATTACTAG | 0.0167
73 | GAAGGGGA | -0.16
74 | ATTCCTGG | -0.134
75 | GCGGCCAA | -0.0464
76 | GGCTTGTA | -0.12
77 | ACATGGGA | -0.027
78 | AGGCTCCA | -0.147
79 | CATATTAG | 0.179
80 | CCCGTAAA | -0.101
81 | CACAATTA | 0.00794
82 | ACACGGAC | 0.174
83 | GACCGGTC | -0.0358
84 | GTATGTAA | 0.0891
85 | GACCTTCC | -0.166
86 | CCGCTCCA | -0.145
87 | ACCCACCG | 0.0282
88 | GATAAGCC | -0.0804

Row | Sequence | PBM E-score
89 | AGCGCACA | 0.0155
90 | GTAATCAC | 0.229
91 | CCCCGTTC | -0.128
92 | AACCGTAC | -0.0348
93 | CACCGAAC | -0.0664
94 | ACGTTAAT | 0.13
95 | CACGCGTG | 0.152
96 | TACCCAGA | 0.109
97 | CCGATCAG | 0.0497
98 | CGTAGTTA | 0.119
99 | ATCGGGAA | -0.0621
100 | CCATTAGC | -0.00824
101 | CGATTCAG | 0.0774
102 | GCTGTCTA | 0.0236
103 | AATTGGTA | 0.112
104 | CGAGTTAA | 0.187
105 | CACTGAAG | 0.0186
106 | CGGGCCTC | 0.0884
107 | CAAGGTCG | 0.0203
108 | AAGAGTCT | -0.0688
109 | ACGACAAA | 0.205
